{
  "sequences": {"note": "By UniProt entry, the sequences of proteins in these tests, tags left out. Where a name states a change or a piece, a line headed by the entry shows the natural chain unless it says otherwise.", "UniProt P10747": "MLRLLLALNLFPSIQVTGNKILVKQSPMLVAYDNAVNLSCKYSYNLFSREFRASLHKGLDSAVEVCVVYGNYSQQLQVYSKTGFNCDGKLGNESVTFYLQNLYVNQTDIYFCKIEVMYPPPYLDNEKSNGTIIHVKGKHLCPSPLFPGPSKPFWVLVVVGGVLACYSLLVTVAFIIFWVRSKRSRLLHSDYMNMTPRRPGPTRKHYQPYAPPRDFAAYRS"},
  "source": "patent US20220098320A1",
  "about": "“SENOLYTIC CAR-T CELLS TARGETING UPAR, A CELL SURFACE AND SECRETED […]” (MEMORIAL SLOAN KETTERING CANCER CENTER, priority 2019, published 2022)",
  "molecular_target": "T1, mouse urokinase plasminogen activator receptor (uPAR) (mouse) (UniProt P35456)",
  "T1 sequence (looked up)": "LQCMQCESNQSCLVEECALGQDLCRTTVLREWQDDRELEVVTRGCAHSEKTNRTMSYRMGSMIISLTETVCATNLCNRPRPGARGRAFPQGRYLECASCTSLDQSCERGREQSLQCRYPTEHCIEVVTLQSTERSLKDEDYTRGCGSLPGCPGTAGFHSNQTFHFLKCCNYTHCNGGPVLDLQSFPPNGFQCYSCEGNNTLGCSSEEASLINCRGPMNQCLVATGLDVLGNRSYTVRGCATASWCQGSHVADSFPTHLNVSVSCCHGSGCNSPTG",
  "test": "flow cytometry on NALM6 and Eµ-ALL01 cells engineered to overexpress mouse uPAR against wild type cells",
  "note": "No constants are given. Whether binding was seen depends on the method and setting. Some results given as binding are weak or reduced against the parent protein; the word gives no strength.",
  "data": [
    {"substance": "m.uPAR-h.28z chimeric antigen receptor (human SFG-m.uPAR-h28z CAR) (from UniProt P10747 114-220; P20963 52-163)", "values": [
      {"measurement": "binding", "result": "binds"}
    ]}
  ]
}
